{"source": "PubChem BioAssay AID504834", "about": "(National Center for Advancing Translational Sciences (NCATS), 2011)", "note": "Hit rate of the full screen: of about 320,000 compounds, about 22,000 (6.9%) were called active. This list was built around the results that the source calls inconclusive (neither active nor inactive); the mix of calls is not that of the screen. Calls follow the shape of the dose curve; as a rule, active = well fitted inhibition curve with a large enough effect; inconclusive = small, poorly fitted or top-dose-only effect, or another doubt; inactive = no such curve, though single readings can be large or run the other way. Where the call is inconclusive, the potency comes from a doubtful curve fit. % is scaled to controls: 0 for no effect and ±100 for the full control effect; potency is read from the fitted curve at half-maximal effect."}
{"experiment": "Primary qHTS for delayed death inhibitors of the malarial parasite plastid, 96 hour incubation", "settings": "P. falciparum luciferase reporter growth; series mostly up to 28.7 µM; activity change, negative = inhibition: at the top concentration", "outline": "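Parasite growth measured via integrated firefly luciferase reporter in P. falciparum. Infected erythrocytes at 2% hematocrit, 0.05% parasitemia final were treated 96 hours at 37 C under 5% CO2, and luminescence was read.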"}
{"smiles": "CC(C(=O)O)N1c2cccc3cccc(c23)S1(=O)=O", "note": "(stereo unspecified)", "Potency": "inconclusive: 18.5 µM [inhibitor, single point]"}
{"smiles": "Cc1ccc2nc(NC(=O)C3CCN(S(=O)(=O)c4ccc5c(c4)oc(=O)n5C)CC3)sc2c1", "Potency": "inconclusive: 10.4 µM [inhibitor, partial curve]"}
{"smiles": "Cc1nn2c(-c3ccc(S(=O)(=O)N4CCN(CCO)CC4)o3)nnc2c2ccccc12", "Potency": "active: 10.4 µM"}
{"smiles": "Cc1occc1C(=O)N=Nc1c(O)n(C)c2ccccc12", "activity change, negative = inhibition": "inactive: 333%"}
{"smiles": "Cc1ccccc1-c1cc(C(=O)NCC2CC2)nn1CC1CC(c2cccc([N+](=O)[O-])c2)=NO1", "note": "(stereo unspecified)", "Potency": "active: 2.62 µM"}
{"smiles": "CC(C)CC(=O)Nc1nnc(SCC(=O)NC2CCCCC2)s1", "Potency": "inconclusive: 18.5 µM [inhibitor, partial curve, poor fit]"}
{"smiles": "CCOC(=O)/C(CCC[N+](C)(CC)CC)=N\\O", "Potency": "inconclusive: 3.29 µM [inhibitor, partial curve, poor fit]"}
{"smiles": "COc1ccc(/C=N/NC(=O)c2ccc3nc[nH]c3c2)c(OC)c1OC", "activity change, negative = inhibition": "inactive: -2.02%"}
{"smiles": "O=C(Nc1ccc(N2CCOCC2)cc1)c1ccc(COc2ccccc2)cc1", "Potency": "inconclusive: 3.7 µM [inhibitor, partial curve, poor fit]"}
{"smiles": "CC(C)(C)C(=O)Nc1c2c(nn1-c1ccccc1)CSC2", "activity change, negative = inhibition": "inactive: -18.2%"}
{"smiles": "CC(=O)c1c(C)[nH]c(C(=O)OCC(=O)NCCCc2ccccc2)c1C", "Potency": "active: 9.28 µM"}
{"smiles": "O=c1oc2ccccc2c(O)c1C(c1ccc([N+](=O)[O-])cc1)c1c(O)c2ccccc2oc1=O", "Potency": "inconclusive: 14.7 µM [inhibitor, partial curve, poor fit]"}
{"smiles": "Cc1cc(=O)oc2cc(OCC(=O)NCc3ccco3)ccc12", "Potency": "inconclusive: 10.4 µM [inhibitor, single point]"}
{"smiles": "COc1cccc(-c2nc(NCc3cccnc3)c3ccccc3n2)c1O", "Potency": "inconclusive: 5.86 µM [inhibitor, partial curve]"}
{"smiles": "Cc1ccc(/C=N/NC(=O)c2csc(C)c2)o1", "Potency": "inconclusive: 18.5 µM [inhibitor, single point]"}
{"smiles": "C/C(=N/Nc1ccc(F)cc1)c1ccc(Cl)s1", "Potency": "inconclusive: 18.5 µM [inhibitor, single point]"}
{"smiles": "O=C(COc1ccc(C(=O)NCCN2CCOCC2)cc1)Nc1cccc(C(F)(F)F)c1", "Potency": "inconclusive: 18.5 µM [inhibitor, single point]"}
{"smiles": "CCCCOc1ccc(C(=O)NNC(=S)NC(=O)CC)cc1", "Potency": "inconclusive: 2.62 µM [inhibitor, full curve, poor fit]"}
{"smiles": "CN(C1CCCC1)C1CCN(C(=S)Nc2cc(F)cc(F)c2)CC1", "Potency": "inconclusive: 7.38 µM [inhibitor, partial curve, poor fit]"}
{"smiles": "CCCc1nc2ccc(NC(=O)c3ccco3)cc2c(=O)n1Cc1ccccc1Cl", "activity change, negative = inhibition": "inactive: -0.411%"}
{"smiles": "Cc1ccccc1CNS(=O)(=O)c1ccccc1[N+](=O)[O-]", "Potency": "active: 0.657 µM"}
{"smiles": "COc1ccc(C(CCN(Cc2ccc(OC)c(OC)c2)C(=O)CCl)c2ccccc2)cc1", "note": "(stereo unspecified)", "Potency": "inconclusive: 2.33 µM [inhibitor, full curve, poor fit]"}
{"smiles": "CN=C1S/C(=C\\c2ccc(SC)cc2)C(=O)N1C", "activity change, negative = inhibition": "inactive: 88.8%"}
{"smiles": "COc1ccc(S(=O)(=O)N2CCN(Cc3cccc(OC)c3OC)CC2)cc1", "activity change, negative = inhibition": "inactive: 0%"}
{"smiles": "CCC(C(=O)Nc1ccc(C)cc1)c1ccccc1", "note": "(stereo unspecified)", "activity change, negative = inhibition": "inactive: 37.4%"}
{"smiles": "O=C1OC(CC(=O)N(Cc2nnc(-c3ccc(Cl)cc3)o2)C2CC2)c2ccccc21", "note": "(stereo unspecified)", "activity change, negative = inhibition": "inactive: -22%"}
{"smiles": "CCOc1ccccc1NC(=O)C1CCCN(S(C)(=O)=O)C1", "note": "(stereo unspecified)", "Potency": "inconclusive: 4.15 µM [inhibitor, partial curve, poor fit]"}
{"smiles": "COC(=O)Cc1cnc(NC(=O)CSc2nc(C(C)C)cc(=O)[nH]2)s1", "Potency": "inconclusive: 4.15 µM [inhibitor, single point]"}
{"smiles": "COc1ccc(C(=O)NC2CCCN(Cc3ccccc3F)C2)c(OC)c1OC", "note": "(stereo unspecified)", "Potency": "inconclusive: 18.5 µM [inhibitor, single point]"}
{"smiles": "O=C(Nc1ccccc1)Oc1ccc[nH]c1=O", "activity change, negative = inhibition": "inactive: 42.2%"}
{"smiles": "O=C(CC1CC2CCC1C2)OCC(=O)c1c[nH]c2ccccc12", "note": "(stereo unspecified)", "Potency": "active: 5.22 µM"}
{"smiles": "COc1ccc(-c2nc3ccc(C(=O)N4CCC5(CC4)OCCO5)cc3nc2-c2ccc(OC)cc2)cc1", "Potency": "inconclusive: 16.5 µM [inhibitor, single point]"}
{"smiles": "CN(C)/C=N/c1ncnc2c1cnn2-c1ccc(C(F)(F)F)cn1", "activity change, negative = inhibition": "inactive: 17%"}
{"smiles": "CCSc1nnc(NC(=O)CSc2nnc(C)c(=O)n2N)s1", "activity change, negative = inhibition": "inactive: 14.7%"}
{"smiles": "Cc1ccc(S(=O)(=O)NNC(=O)c2cccs2)c(C)c1", "activity change, negative = inhibition": "inactive: 0%"}
{"smiles": "CCCC(=O)Nc1ccc(-c2csc(N/N=C\\c3ccncc3)n2)cc1", "Potency": "inconclusive: 8.28 µM [inhibitor, partial curve, poor fit]"}
{"smiles": "O=C(O)c1cc([N+](=O)[O-])cc([N+](=O)[O-])c1N1CCN(c2cccc(C(F)(F)F)c2)CC1", "activity change, negative = inhibition": "inactive: 25.6%"}
{"smiles": "CC/C(=N\\Nc1ccc([N+](=O)[O-])cc1)c1ccccc1", "Potency": "inconclusive: 18.5 µM [inhibitor, single point]"}
{"smiles": "CCOC(=O)C1CCN(Cc2nc3ccc(Cl)cc3n2CCO)CC1", "activity change, negative = inhibition": "inactive: 86.6%"}
{"smiles": "Cc1ccc2nc(NC(=O)C3CCN(S(=O)(=O)c4cccc5nsnc45)CC3)sc2c1", "activity change, negative = inhibition": "inactive: -3.35%"}
{"smiles": "Cc1c(C(=O)NCCN2C(=O)S/C(=C\\c3cccnc3)C2=O)cccc1[N+](=O)[O-]", "Potency": "inconclusive: 1.85 µM [inhibitor, full curve, poor fit]"}
{"smiles": "Cc1nc2sc3c(c2c(=N)n1N)CCCC3", "Potency": "active: 10.4 µM"}
{"smiles": "C#CCNC(=O)C1=C[C@@H](c2csc3ccccc23)[C@H](CCCO)[C@@H](OCC)O1", "Potency": "inconclusive: 1.65 µM [inhibitor, partial curve]"}
{"smiles": "CCN(CC)CCNC(=O)Cn1c(=O)c2cccn2c2ccc(F)cc21", "Potency": "inconclusive: 10.4 µM [inhibitor, single point]"}
{"smiles": "Cc1cccc(OCC(=O)Nc2cc(NC(=O)COc3cccc(C)c3C)cc(C(=O)O)c2)c1C", "Potency": "inconclusive: 13.1 µM [inhibitor, single point]"}
{"smiles": "O=c1cc(C(F)(F)F)c2cc3c4c(c2o1)CCCN4CCC3", "activity change, negative = inhibition": "inactive: -27.7%"}
